Experimental data from PMC5725533.

T1: GST-tagged EML1 N-ter (EML1 N-terminal domain, amino acids 1-174) (UniProt O00423)
T1 sequence: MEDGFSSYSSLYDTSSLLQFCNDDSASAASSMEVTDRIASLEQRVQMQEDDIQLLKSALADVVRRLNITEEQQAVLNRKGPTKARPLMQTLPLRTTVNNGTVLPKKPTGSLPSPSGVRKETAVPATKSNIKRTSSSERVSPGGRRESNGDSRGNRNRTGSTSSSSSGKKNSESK


target: T1, GST-tagged EML1 N-ter (EML1 N-terminal domain, amino acids 1-174); assay: affinity purification with mass spectrometry; purified GST-EML1 N-ter (4 μg) coupled to Glutathione-Agarose resin, incubated overnight with E13.5 mouse embryonic cortex extract; lysis buffer Tris HCl 50 mM, NaCl 150 mM, EDTA 1 mM pH 8, 1% NP-40; bound fractions by nano LC-MS/MS, label-free XIC quantification against GST control; two independent pull-downs; only the target purified

Row | binding | Binder
1 | binds | Clasp2 (protein, UniProt Q8BRT1 1-1286) MRRLICKRICDYKSFDDEESVDGNRPSSAASAFKVPAPKTPGNPVSSARKPGSAGGPKVGGPSKEGGAGAVDEDDFIKAFTDVPSVQIYSSRELEETLNKIREILSDDKHDWDQRANALKKIRSLLVAGAAQYDCFFQHLRLLDGALKLSAKDLRSQVVREACITVAHLSTVLGNKFDHGAEAIVPTLFNLVPNSAKVMATSGCAAIRFIIRHTHVPRLIPLITSNCTSKSVPVRRRSFEFLDLLLQEWQTHSLERHAAVLVETIKKGIHDADAEARVEARKTYMGLRNHFPGEAETLYNSLEPSYQKSLQTYLKSSGSVASLPQSDRSSSSSQESLNRPFSSKWSTANPSTVAGRVSVGGSKANPLPGSLQRSRSDIDVNAAAGAKAHHAAGQAVRSGRLGAGALNPGSYASLEDTSDKMDGTASDDGRVRAKLSTPLVAVGNAKTDSRGRSRTKMVSQSQPGSRSGSPGRVLTTTALSTVSSGAQRVLVNSASAQKRSKIPRSQGCSREASPSRLSVARSSRIPRPSVSQGCSREASRESSRDTSPVRSFQPLGPGYGISQSSRLSSSVSAMRVLNTGSDVEEAVADALLLGDIRTKKKPARRRYESYGMHSDDDANSDASSACSERSYSSRNGSIPTYMRQTEDVAEVLNRCASSNWSERKEGLLGLQNLLKNQRTLSRIELKRLCEIFTRMFADPHGKVFSMFLETLVDFIQVHKDDLQDWLFVLLTQLLKKMGADLLGSVQAKVQKALDITRESFPNDLQFNILMRFTVDQTQTPSLKVKVAILKYIETLAKQMDPRDFTNSSETRLAVSRVITWTTEPKSSDVRKAAQSVLISLFELNTPEFTMLLGALPKTFQDGATKLLHNHLRNTGNGTQSSMGSPLTRPTPRSPANWSSPLTSPTNTSQNTLSPSAFDYDTENMNSEDIYSSLRGVTEAIQNFSFRSQEDMSEPVRRDPKKEDGDTICSGPGMSDPRAGGDAADGSQPALDNKASLLHSMPLHSSPRSRDYNPYNYSDSISPFNKSALKEAMFDDDADQFPDDLSLDHSDLVAELLKELSNHNERIEERKIALYELMKLTQEESFSVWDEHFKTILLLLLETLGDKEPTIRALALKVLKEILRHQPARFKNYAELTVMKTLEAHKDPHKEVVRSAEEAASVLATSISPEQCIKVLCPIIQTADYPINLAAIKMQTKVIERVSKETLNMLLPEIMPGLIQGYDNSESSVRKACVFCLVAVHAVIGDELKPHLSQLTGSKMKLLNLYIKRAQTGSAGADPTADVSGQS
2 | binds | nuclear distribution E neurodevelopment protein 1 (Nde1) (protein, UniProt Q9CZA6 1-344) MEDSGKTFESEEEETNYWRDLAMTYKQRAENTQEELREFQEGSREYEAELEAQLQQIETRNRDLLSENNRLRMELESVKEKFEMQHSEGYRQISALEDDLAQTKAIKDQLQKYIRELEQANDDLERAKRATIMSLEDFEQRLNQAIERNAFLESELDEKENLLESVQRLKDEARDLRQELAVQQKQDKPRTPMPGSGQAKRTDMAVQATGSVPSTPVAHRGPSSGLNTPGMFRRGLDSSTSGTPLTPAARISALNIVGDLLRKVGALESKLASCRNFMYDQSPSRTSGPASGRGTKNRDGVDRRPGSTSVGDKGSGKRLEFGKPASEPASPALPSAQGVVKLLL
3 | binds | Nde1-like (Ndel1) (protein, UniProt Q9ERR1 1-345) MDGEDIPDFSSLKEETAYWKELSLKYKQSFQEARDELVEFQEGSRELEAELEAQLVQAEQRNRDLQADNQRLKYEVEALKEKLEHQYAQSYKQVSVLEDDLSQTRAIKEQLHKYVRELEQANDDLERAKRATIVSLEDFEQRLNQAIERNAFLESELDEKESLLVSVQRLKDEARDLRQELAVRERQQEVTRKSAPSSPTLDCEKMDSAVQASLSLPATPVGKGTENSFPSPKAIPNGFGTSPLTPSARISALNIVGDLLRKVGALESKLAACRNFAKDQASRKSYVPGSVNCGVMNSNGPECPRSGRATFFHKGAVNGFDPAPPPPGLGSSRPSSAPGMLPLSV
4 | binds | Eml2 (protein, UniProt Q7TNG5 1-649) MSSFGIGKTKEVIFSMEEGSVKMFLRGRPVPMLIPDELAPTYSLDTRSELPSSRLKLDWVYGYRGRDCRANLYLLPTGEVVYFVASVAVLYSVEEQRQRHYLGHNDDIKCLAVHPDMVTIATGQVAGTTKEGKPLPPHVRVWDSVSLSTLHVLGLGVFDRAVCCVAFSKSNGGNLLCAVDESNDHVLSVWDWAKESKVVDSKCSNEAVLVATFHPTDPSLLITCGKSHIYFWSLEGGSLSKRQGLFEKHEKPKYVLCVTFLEGGDVVTGDSGGNLYVWGKGGNRITQEVQGAHDGGVFALCALRDGTLVSGGGRDRRVVLWGSDYSKVQEVEVPEDFGPVRTVAEGRGDTLYVGTTRNSILLGSVHTGFSLLVQGHVEELWGLATHPSRAQFVTCGQDKLVHLWSSETHQPVWSRSIEDPARSAGFHPSGSVLAVGTVTGRWLLLDTETHDLVAIHTDGNEQISVVSFSPDGAYLAVGSHDNLVYVYTVDQGGRKVSRLGKCSGHSSFITHLDWAQDSTCFVTNSGDYEILYWDPVTCKQITSADTVRNVEWATATCVLGFGVFGIWPEGADGTDINAVARSHDGKLLVSADDFGKVHLFSYPCCQPRALSHKYGGHSSHVTNVAFLWDDSMALTTGGKDTSVLQWRVA
5 | binds | Eml4 (protein, UniProt Q3UMY5 1-988) MDGFAGSLDDSISAASTSDVQDRLSALESRVQQQEDEITVLKAALADVLRRLAISEDHVASVKKSMPSKGQPSLREAISMSCITNGSGISRKQNHTSSVSIARKETLSSAAKSGTEKKKEKPQGQREKKEDSHSNDQSPQIRASPSPQPSSQPLQINRQTPESKSSAPIKSIKRPPTAEKSHNSWENSDDSRNKLMKTVSTSKLISKVIKNADKHKDVIVNQAKMSTREKNSQEGEYIKMFMRGRPITMFIPSDVDNYDDIRTELPPEKLKLEWVYGYRGKDCRANVYLLPTGEIVYFIASVVVLFNYEERTQRHYLGHTDCVRCLAVHPDKIRIATGQIAGVDKDGRPLQPHVRVWDSVSLTTLHVIGLGTFERGVGCLDFSKADSGVHLCVIDDSNEHMLTVWDWQKKSKIAEIKTTNEVVLAVEFHPTDANTIITCGKSHIFFWTWSGNSLTRKQGIFGKYEKPKFVQCLAFLGNGDVLTGDSGGVMLIWSKTMVEPPPGKGPKGVYQINRQIKAHDGSVFTLCQMRNGMLLTGGGKDRKIILWDHDLNLEREIEVPDQYGTIRAVAEGRAEQFLVGTSRNFILRGTFNDGFQIEVQGHRDELWGLATHPFKDLLLTCAQDRQVCMWNSVEHRLEWTRLVDEPGHCADFHPSGTVVAIGTHSGRWFVLDAETRDLVSIHTDGNEQLSVMRYSVDGTLLAVGSHDNFIYLYTVLENGRKYSRYGKCTGHSSYITHLDWSPDNKHIMSNSGDYEILYWDIENGCKLIRNRSDCKDIDWTTYTCVLGFQVFGVWPEGSDGTDINALVRSHNRRVIAVADDFCKVHLFQYPCSKAKAPSHKYSAHSSHVTNVSFTHNDSHLISTGGKDMSIIQWKLVEKLPVPQNEVITDASVTKTPASSSETARPSNSPPLPPSLPLTGTAEEESRMGSSPTLVENSLEQIAEPSEEQSEWGSEDLGVVIDEEPASELSETQGATELPEEERGITPLC

No constants are given. Whether binding was seen depends on the method and setting. Binding seen in cells or lysates may run through a third protein. Here binding means that the protein was enriched with, or labelled near, the bait; the list need not be complete. Sequences can lack the tags named with a protein.
